Laboratory results from the supplement of paper PMC10849652.
Some of the results follow.

Protein sequences, listed by entry. Tags and fused reporters are not part of them. Lines headed by an entry give the natural chain unless they say otherwise; changes in a name come on top.
UniProt O60508: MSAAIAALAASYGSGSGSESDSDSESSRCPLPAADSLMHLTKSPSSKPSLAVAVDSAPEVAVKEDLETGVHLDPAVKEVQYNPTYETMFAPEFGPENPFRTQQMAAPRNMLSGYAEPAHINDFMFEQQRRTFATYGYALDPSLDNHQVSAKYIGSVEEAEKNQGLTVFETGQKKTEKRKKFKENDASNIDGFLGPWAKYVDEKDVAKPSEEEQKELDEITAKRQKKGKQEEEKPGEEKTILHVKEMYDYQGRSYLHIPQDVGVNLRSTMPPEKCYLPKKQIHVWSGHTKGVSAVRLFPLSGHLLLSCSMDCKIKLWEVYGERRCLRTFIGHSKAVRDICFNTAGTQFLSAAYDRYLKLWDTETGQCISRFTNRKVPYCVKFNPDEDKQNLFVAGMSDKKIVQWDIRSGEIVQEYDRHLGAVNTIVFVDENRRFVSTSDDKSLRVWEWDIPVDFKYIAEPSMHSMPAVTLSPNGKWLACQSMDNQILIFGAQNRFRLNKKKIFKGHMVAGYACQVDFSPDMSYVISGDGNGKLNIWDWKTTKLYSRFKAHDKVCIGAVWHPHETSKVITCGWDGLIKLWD
UniProt Q8N2Z9: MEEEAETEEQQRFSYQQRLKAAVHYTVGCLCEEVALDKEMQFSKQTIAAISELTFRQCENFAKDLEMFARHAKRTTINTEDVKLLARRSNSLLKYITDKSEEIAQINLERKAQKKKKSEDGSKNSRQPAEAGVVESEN
UniProt Q9H3R5: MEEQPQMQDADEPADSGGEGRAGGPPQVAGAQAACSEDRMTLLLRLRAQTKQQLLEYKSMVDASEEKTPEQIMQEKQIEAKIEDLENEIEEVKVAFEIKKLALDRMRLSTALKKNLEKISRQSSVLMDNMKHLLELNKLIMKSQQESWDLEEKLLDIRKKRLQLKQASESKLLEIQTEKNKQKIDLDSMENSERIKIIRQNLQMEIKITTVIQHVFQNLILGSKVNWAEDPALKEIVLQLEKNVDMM
UniProt P48960: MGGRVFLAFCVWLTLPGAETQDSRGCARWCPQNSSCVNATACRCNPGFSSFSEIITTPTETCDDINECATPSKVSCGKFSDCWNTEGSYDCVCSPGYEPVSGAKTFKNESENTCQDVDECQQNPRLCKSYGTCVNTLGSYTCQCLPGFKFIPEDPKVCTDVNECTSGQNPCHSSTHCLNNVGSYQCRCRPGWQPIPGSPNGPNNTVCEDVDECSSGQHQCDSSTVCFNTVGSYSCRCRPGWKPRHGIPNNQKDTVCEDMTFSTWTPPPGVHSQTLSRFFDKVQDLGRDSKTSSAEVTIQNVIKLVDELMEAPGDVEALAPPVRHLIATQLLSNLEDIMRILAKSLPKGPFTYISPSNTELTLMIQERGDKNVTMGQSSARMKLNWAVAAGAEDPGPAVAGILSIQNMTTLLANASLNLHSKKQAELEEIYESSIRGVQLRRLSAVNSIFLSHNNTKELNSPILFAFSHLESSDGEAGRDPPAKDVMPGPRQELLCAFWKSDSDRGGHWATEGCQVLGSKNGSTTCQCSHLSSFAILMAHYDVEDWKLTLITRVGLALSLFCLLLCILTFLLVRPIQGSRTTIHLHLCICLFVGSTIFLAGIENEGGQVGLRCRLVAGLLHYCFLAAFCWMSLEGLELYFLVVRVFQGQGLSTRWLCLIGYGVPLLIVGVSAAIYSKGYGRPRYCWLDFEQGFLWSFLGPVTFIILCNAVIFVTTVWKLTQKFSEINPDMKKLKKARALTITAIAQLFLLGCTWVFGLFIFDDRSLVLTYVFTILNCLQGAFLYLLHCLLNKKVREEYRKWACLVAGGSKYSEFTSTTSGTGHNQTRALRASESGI
UniProt P50750, whole entry, looked up: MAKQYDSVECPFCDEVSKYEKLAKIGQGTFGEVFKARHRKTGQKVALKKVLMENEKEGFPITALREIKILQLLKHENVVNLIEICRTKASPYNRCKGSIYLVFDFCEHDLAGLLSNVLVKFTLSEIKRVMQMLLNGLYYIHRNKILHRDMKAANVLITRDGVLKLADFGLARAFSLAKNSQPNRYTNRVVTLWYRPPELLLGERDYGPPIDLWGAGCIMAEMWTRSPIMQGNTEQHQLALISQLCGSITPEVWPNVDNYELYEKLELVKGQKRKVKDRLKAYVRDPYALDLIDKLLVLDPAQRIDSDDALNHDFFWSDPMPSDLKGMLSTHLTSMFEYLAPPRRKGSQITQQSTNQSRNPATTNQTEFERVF
UniProt Q8NHZ8, whole entry, looked up: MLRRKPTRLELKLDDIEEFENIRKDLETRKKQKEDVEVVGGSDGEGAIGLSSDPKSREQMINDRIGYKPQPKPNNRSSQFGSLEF
UniProt P06493, whole entry, looked up: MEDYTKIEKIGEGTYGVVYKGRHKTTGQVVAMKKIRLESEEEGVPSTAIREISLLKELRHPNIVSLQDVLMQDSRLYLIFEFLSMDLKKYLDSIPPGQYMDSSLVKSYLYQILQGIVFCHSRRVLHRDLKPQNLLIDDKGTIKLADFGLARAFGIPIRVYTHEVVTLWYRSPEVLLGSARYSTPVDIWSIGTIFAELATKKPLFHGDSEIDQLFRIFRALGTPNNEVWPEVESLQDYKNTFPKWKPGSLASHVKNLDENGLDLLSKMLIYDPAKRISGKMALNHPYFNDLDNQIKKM
UniProt P41208: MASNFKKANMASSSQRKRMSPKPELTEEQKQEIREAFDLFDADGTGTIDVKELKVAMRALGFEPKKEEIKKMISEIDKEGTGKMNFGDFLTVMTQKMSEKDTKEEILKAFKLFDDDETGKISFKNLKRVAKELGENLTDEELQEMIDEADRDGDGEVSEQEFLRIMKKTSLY
UniProt Q9NYV4, whole entry, looked up: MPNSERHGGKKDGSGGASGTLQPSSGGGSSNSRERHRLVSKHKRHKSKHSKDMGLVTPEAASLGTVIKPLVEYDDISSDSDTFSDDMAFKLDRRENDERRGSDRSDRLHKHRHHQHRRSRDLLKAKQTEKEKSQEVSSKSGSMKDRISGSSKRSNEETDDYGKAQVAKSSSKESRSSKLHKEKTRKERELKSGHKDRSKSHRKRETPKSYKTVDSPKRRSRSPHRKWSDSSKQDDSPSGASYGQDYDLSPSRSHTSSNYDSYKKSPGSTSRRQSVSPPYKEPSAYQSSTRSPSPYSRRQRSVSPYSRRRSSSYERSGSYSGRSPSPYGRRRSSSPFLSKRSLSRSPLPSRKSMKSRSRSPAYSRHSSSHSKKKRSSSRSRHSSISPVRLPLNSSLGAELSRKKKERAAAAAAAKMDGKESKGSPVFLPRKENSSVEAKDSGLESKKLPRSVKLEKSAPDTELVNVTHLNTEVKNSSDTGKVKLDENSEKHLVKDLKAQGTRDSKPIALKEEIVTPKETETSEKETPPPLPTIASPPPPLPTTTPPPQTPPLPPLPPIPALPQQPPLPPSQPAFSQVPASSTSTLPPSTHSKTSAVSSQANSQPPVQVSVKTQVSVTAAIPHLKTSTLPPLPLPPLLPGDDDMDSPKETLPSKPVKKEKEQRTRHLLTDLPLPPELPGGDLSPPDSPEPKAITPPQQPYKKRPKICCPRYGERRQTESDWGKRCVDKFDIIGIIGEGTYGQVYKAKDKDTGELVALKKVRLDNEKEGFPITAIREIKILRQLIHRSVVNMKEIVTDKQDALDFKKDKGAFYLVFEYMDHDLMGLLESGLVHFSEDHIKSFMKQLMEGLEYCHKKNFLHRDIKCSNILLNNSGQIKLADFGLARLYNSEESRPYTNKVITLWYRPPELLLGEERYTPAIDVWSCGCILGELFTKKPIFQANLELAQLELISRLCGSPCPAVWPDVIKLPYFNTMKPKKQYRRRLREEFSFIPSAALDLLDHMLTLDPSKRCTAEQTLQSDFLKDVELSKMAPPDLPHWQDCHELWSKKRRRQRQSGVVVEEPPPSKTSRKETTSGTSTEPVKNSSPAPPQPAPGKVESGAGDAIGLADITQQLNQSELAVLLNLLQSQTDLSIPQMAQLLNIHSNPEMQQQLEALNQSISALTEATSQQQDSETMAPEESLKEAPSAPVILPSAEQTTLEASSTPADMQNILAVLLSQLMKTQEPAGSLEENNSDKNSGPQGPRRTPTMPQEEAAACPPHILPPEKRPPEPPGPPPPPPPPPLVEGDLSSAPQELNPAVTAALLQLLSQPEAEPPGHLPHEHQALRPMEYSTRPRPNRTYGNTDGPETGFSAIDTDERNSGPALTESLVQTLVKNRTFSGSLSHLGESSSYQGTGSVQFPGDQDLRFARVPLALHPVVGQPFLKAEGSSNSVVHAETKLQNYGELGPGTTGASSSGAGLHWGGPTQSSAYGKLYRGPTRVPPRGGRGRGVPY
UniProt Q9Y232: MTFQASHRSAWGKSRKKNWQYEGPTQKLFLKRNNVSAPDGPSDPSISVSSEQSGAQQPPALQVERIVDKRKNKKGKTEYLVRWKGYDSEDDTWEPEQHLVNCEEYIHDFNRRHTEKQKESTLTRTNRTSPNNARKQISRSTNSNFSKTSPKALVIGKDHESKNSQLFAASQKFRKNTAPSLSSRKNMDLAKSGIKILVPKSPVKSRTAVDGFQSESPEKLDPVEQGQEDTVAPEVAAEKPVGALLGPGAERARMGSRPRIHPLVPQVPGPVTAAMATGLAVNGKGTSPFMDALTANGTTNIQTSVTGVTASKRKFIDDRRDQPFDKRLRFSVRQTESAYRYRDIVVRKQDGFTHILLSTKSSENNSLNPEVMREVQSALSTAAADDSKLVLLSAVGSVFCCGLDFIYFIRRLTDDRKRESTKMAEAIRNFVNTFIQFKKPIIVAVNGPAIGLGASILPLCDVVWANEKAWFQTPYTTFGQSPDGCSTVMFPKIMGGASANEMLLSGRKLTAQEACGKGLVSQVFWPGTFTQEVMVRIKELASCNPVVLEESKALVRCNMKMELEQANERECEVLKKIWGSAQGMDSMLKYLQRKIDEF
UniProt Q8IWY9: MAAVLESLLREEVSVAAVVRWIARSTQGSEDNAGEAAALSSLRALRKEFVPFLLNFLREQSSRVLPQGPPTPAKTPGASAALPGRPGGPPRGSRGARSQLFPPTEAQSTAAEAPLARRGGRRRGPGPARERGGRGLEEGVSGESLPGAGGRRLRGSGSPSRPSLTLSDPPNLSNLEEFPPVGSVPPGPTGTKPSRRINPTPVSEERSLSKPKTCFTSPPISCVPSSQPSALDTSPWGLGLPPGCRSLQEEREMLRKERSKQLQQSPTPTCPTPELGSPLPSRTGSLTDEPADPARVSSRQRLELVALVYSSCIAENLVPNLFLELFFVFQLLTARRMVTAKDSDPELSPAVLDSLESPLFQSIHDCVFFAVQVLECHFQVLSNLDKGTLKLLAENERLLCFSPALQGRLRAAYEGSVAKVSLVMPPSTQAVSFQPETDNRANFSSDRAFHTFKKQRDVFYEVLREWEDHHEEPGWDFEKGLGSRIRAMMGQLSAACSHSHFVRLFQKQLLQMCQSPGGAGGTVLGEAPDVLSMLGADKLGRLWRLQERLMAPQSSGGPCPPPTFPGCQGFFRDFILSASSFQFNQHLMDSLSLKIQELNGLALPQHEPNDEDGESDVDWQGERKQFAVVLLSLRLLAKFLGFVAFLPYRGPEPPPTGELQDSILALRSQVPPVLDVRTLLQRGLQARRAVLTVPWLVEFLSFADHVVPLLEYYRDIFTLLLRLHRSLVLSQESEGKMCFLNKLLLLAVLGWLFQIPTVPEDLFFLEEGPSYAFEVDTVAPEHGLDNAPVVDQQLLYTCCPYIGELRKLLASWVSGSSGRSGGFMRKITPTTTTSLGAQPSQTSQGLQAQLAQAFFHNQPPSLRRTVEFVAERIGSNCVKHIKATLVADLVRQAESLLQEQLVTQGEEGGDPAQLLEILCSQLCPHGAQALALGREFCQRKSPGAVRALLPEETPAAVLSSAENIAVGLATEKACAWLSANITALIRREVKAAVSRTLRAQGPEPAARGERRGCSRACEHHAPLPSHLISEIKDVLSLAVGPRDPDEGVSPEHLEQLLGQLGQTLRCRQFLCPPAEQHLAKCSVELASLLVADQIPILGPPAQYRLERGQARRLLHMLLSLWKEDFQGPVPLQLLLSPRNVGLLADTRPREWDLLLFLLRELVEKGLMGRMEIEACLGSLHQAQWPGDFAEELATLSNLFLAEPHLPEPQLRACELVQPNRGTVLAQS
UniProt O95319: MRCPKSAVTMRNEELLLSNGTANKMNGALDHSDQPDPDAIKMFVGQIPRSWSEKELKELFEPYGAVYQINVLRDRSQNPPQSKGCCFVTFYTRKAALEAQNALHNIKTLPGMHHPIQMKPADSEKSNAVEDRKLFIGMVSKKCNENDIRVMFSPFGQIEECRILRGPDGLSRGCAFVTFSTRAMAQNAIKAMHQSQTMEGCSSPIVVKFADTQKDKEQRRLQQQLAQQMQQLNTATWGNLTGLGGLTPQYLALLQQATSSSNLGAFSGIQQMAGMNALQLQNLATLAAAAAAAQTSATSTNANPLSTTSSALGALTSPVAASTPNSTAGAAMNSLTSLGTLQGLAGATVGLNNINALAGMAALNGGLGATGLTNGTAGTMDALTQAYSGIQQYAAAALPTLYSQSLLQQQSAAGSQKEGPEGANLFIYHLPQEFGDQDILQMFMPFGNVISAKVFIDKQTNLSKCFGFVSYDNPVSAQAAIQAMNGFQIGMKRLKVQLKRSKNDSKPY

What was measured:
Assay in all cases: log2 fold change, soluble protein after heating vs DMSO (PISA); higher = thermal stabilisation; K562 lysate, 10 uM; active = over 0.2 and 3.5 SD of the protein, either way, in both replicates (recomputed)
[1] = compound: CCCS(=O)(=O)Nc1ccc(F)c(C(=O)c2c[nH]c3ncc(-c4ccc(Cl)cc4)cc23)c1F [vemurafenib]
In short: (§1)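 Quantification was by TMTpro 16plex LC-MS/MS with equalised channel sums, applied to the supernatant after 21,000xg for 90 min. Samples were crude K562 extract at 1 mg/mL protein in PBS pH 7.4 with 1 mM MgCl2, treated with 10 μM compound for 30 min, heated for 3 min across 48°C-58°C, pooled and brought to 0.5% NP-40 at 4°C. Values are log-two fold changes in thermal stability relative to solvent controls, from duplicates.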

[2] = compound: CCCS(=O)(=O)Nc1ccc(F)c(C(=O)c2c[nH]c3ncc(Cl)cc23)c1F
In short: as §1

[3] = compound: CCN(CCCOc1ccc2c(Nc3cc(CC(=O)Nc4cccc(F)c4)[nH]n3)ncnc2c1)CCOP(=O)(O)O [barasertib]
In short: as §1

[4] = compound: CC[C@@H]1C(=O)N(C)c2cnc(Nc3ccc(C(=O)NC4CCN(C)CC4)cc3OC)nc2N1C1CCCC1
In short: as §1

[5] = compound: CC[C@@H]1C(=O)N(C)c2cnc(Nc3ccc(C(=O)N[C@H]4CC[C@H](N5CCN(CC6CC6)CC5)CC4)cc3OC)nc2N1C(C)C [volasertib]
In short: as §1

[6] = compound: CCn1c(C(=O)N(C2CC2)C2CC2)cc2c3c(ncn3C)c(Nc3cc(C)n(C)n3)nc21
In short: as §1

[7] = compound: CCn1cc(-c2ccnc3[nH]c(-c4cccc(CN(C)C)c4)cc23)c(-c2ccc(NC(=O)N(C)C)cc2)n1
In short: as §1

[8] = compound: CN1CCC(CNc2ccc3ncc(-c4cccc(OC(F)(F)F)c4)n3n2)CC1
In short: as §1

[9] = compound: CN1CCN(CCOc2cc(OC3CCOCC3)c3c(Nc4c(Cl)ccc5c4OCO5)ncnc3c2)CC1 [saracatinib]
In short: as §1

[10] = compound: CN1CCN(c2nc(C3=C(c4c[nH]c5ccccc45)C(=O)NC3=O)c3ccccc3n2)CC1 [sotrastaurin]
In short: as §1

[11] = compound: CN1CC[C@H](c2c(O)cc(O)c3c(=O)cc(-c4ccccc4Cl)oc23)[C@H](O)C1 [alvocidib]
In short: as §1

[12] = compound: CN1CCc2c(c3ccccc3n2Cc2ccc(C(=O)NO)cc2)C1 [Tubastatin A]
In short: as §1

[13] = compound: CNC(=O)C1=CC=CC=C1NC2=NC(=NC=C2Cl)NC3=C(C=C(C=C3)N4CCOCC4)OC
In short: as §1

[14] = compound: CNC(=O)c1ccc(Nc2ncc(C(F)(F)F)c(NCc3nccnc3N(C)S(C)(=O)=O)n2)cc1 [defactinib]
In short: as §1

[15] = compound: CNc1nc(-c2ccc3c(N)n[nH]c3c2)cc(N2C[C@@H](C(=O)NC3CCCCC3)CC[C@H]2C)n1
In short: as §1

[16] = compound: COC(=O)N[C@@H](C)CNc1nccc(-c2cn(C(C)C)nc2-c2cc(Cl)cc(NS(C)(=O)=O)c2F)n1 [encorafenib]
In short: as §1

[17] = compound: COC(=O)[C@H](CCSC)NC(=O)C1=C(C=C(C=C1)NC[C@H](CS)N)C2=CC=CC=C2
In short: as §1

[18] = compound: COc1cc(Nc2ncc3c(n2)-c2ccc(Cl)cc2C(c2c(F)cccc2OC)=NC3)ccc1C(=O)O [alisertib]
In short: as §1

[19] = compound: COc1cc2nc(-c3cc(F)ccc3O)nc(N[C@@H]3CNC[C@H]3C(C)(C)O)c2cc1OC
In short: as §1

[20] = compound: COc1cc2ncnc(Nc3ccc(F)c(Cl)c3)c2cc1OCCCN1CCOCC1 [gefitinib]
In short: as §1

Target	log2 fold change [1]	log2 fold change [2]	log2 fold change [3]	log2 fold change [4]	log2 fold change [5]	log2 fold change [6]	log2 fold change [7]	log2 fold change [8]	log2 fold change [9]	log2 fold change [10]	log2 fold change [11]	log2 fold change [12]	log2 fold change [13]	log2 fold change [14]	log2 fold change [15]	log2 fold change [16]	log2 fold change [17]	log2 fold change [18]	log2 fold change [19]	log2 fold change [20]
CDC40 (UniProt O60508)	inactive: 0.01	inactive: 0.013	inactive: -0.016	inactive: -0.105	inactive: -0.001	inactive: 0.034	inactive: -0.006	inactive: 0.046	inactive: -0.056	inactive: -0.049	inactive: 0.016	inactive: 0.147	inactive: 0.045	inactive: -0.002	inactive: 0.069	inactive: 0.095	inactive: 0.069	inactive: -0.049	inactive: 0.034	inactive: -0.021
CDC45 isoform 3 (UniProt O75419)	inactive: 0.009	inactive: 0.042	inactive: -0.015	inactive: -0.05	inactive: -0.017	inactive: -0.05	inactive: -0.096	inactive: -0.04	inactive: 0.007	inactive: 0.027	inactive: 0.031	inactive: -0.138	inactive: 0.031	inactive: 0.028	inactive: -0.017	inactive: 0.001	inactive: 0.019	inactive: 0.023	inactive: 0.009	inactive: -0.034
CDKN2C (UniProt P42773)	inactive: 0.029	inactive: -0.001	inactive: 0.357	inactive: -0.046	inactive: 0.085	inactive: 0.065	inactive: -0.076	inactive: -0.082	inactive: 0.062	inactive: -0.058	inactive: -0.041	inactive: 0.13	inactive: 0.054	inactive: 0.146	inactive: -0.04	inactive: 0.063	inactive: -0.047	inactive: 0.072	inactive: -0.029	inactive: -0.094
CENPS (UniProt Q8N2Z9)	inactive: -0.016	inactive: 0.043	inactive: -0.046	inactive: 0.063	inactive: 0.058	inactive: -0.054	inactive: -0.376	inactive: -0.008	inactive: 0.053	inactive: 0.008	inactive: -0.03	inactive: 0.014	inactive: -0.005	inactive: 0.073	inactive: 0.095	inactive: 0.015	inactive: 0.016	inactive: -0.069	inactive: 0.004	inactive: 0.081
CENPH (UniProt Q9H3R5)	inactive: 0.032	inactive: -0.014	inactive: 0.037	inactive: -0.002	inactive: -0.029	inactive: -0.023	inactive: 0.045	inactive: -0.177	inactive: 0.049	inactive: 0.003	inactive: 0.012	inactive: -0.001	inactive: 0.032	inactive: -0.038	inactive: -0.013	inactive: 0.015	inactive: 0.006	inactive: -0.031	inactive: 0.002	inactive: 0.029
CD97 (UniProt P48960)	inactive: 0.056	inactive: 0.016	inactive: -0.012	inactive: 0.065	inactive: 0.048	inactive: -0.067	inactive: -0.026	inactive: 0.048	inactive: -0.04	inactive: 0.053	inactive: -0.002	inactive: 0.062	inactive: -0.104	inactive: 0.041	inactive: 0.046	inactive: -0.058	inactive: 0.004	inactive: 0.038	inactive: 0.01	inactive: 0.017
CDK9 isoform 2 (UniProt P50750)	inactive: -0.117	inactive: -0.064	inactive: -0.025	inactive: 0.009	inactive: 0.002	inactive: 0.175	inactive: -0.203	inactive: 0.079	inactive: 0.005	active: 0.34	active: 0.578	inactive: -0.042	inactive: 0.024	active: 0.392	inactive: 0.016	inactive: -0.008	inactive: -0.033	inactive: -0.003	inactive: 0.191	inactive: 0.008
CDC26 (UniProt Q8NHZ8)	inactive: 0.149	inactive: -0.011	inactive: 0.143	inactive: 0.033	inactive: 0.024	inactive: -0.004	inactive: 0.005	inactive: 0.027	inactive: 0.043	inactive: -0.055	inactive: -0.002	inactive: 0.006	inactive: -0.008	inactive: 0.135	inactive: -0.033	inactive: 0.015	inactive: -0.214	inactive: 0.024	inactive: -0.036	inactive: 0.076
CDK1 (UniProt P06493)	inactive: 0.012	inactive: -0.017	inactive: -0.029	inactive: -0.041	inactive: -0.037	inactive: -0.006	inactive: -0.056	inactive: -0.049	inactive: 0.016	inactive: -0.002	inactive: 0.036	inactive: -0.032	inactive: -0.017	inactive: -0.035	inactive: -0.021	inactive: 0.011	inactive: 0.036	inactive: 0.002	active: 0.328	inactive: -0.03
CDC37 (UniProt Q16543)	inactive: -0.018	inactive: -0.011	inactive: -0.02	inactive: 0.052	inactive: 0.012	inactive: -0.025	inactive: 0.051	inactive: -0.028	inactive: 0	inactive: -0.019	inactive: 0.02	inactive: 0.06	inactive: 0.008	inactive: -0.012	inactive: 0.004	inactive: -0.021	inactive: -0.039	inactive: 0.001	inactive: -0.004	inactive: 0.006
CETN2 (UniProt P41208)	inactive: 0	inactive: -0.012	inactive: -0.007	inactive: 0.022	inactive: 0.007	inactive: 0.095	inactive: 0.064	inactive: 0.029	inactive: 0.042	inactive: 0.032	inactive: -0.011	inactive: -0.049	inactive: -0.02	inactive: 0.02	inactive: -0.025	inactive: 0.123	inactive: -0.047	inactive: 0.057	inactive: -0.011	inactive: 0.005
CFAP298 (UniProt P57076)	inactive: 0.022	inactive: 0.024	inactive: 0.004	inactive: -0.008	inactive: -0.019	inactive: -0.002	inactive: -0.006	inactive: -0.026	inactive: 0.029	inactive: 0.005	inactive: -0.024	inactive: -0.047	inactive: -0.01	inactive: 0.016	inactive: -0.061	inactive: 0	inactive: -0.002	inactive: 0.017	inactive: 0	inactive: -0.011
CDK12 (UniProt Q9NYV4)	inactive: -0.045	inactive: -0.011	inactive: 0.024	inactive: 0.002	inactive: 0.031	inactive: 0.037	inactive: -0.101	inactive: -0.001	inactive: 0.038	inactive: -0.018	inactive: 0.059	inactive: 0.008	inactive: -0.038	inactive: 0.102	inactive: 0.079	inactive: 0.039	inactive: 0.007	inactive: 0.009	inactive: -0.024	inactive: 0.035
CDYL (UniProt Q9Y232)	inactive: -0.076	inactive: 0.013	inactive: -0.03	inactive: 0.019	inactive: 0.036	inactive: 0.051	inactive: -0.01	inactive: 0.038	inactive: -0.027	inactive: 0.013	inactive: -0.029	inactive: 0.033	inactive: -0.056	inactive: 0.033	inactive: -0.05	inactive: 0.022	inactive: -0.132	inactive: 0.05	inactive: -0.01	inactive: -0.079
CDAN1 (UniProt Q8IWY9)	inactive: -0.047	inactive: 0.004	inactive: 0.014	inactive: -0.093	inactive: -0.034	inactive: 0.031	inactive: -0.03	inactive: -0.012	inactive: 0.002	inactive: -0.005	inactive: -0.034	inactive: -0.051	inactive: 0.049	inactive: 0.039	inactive: 0.017	inactive: -0.018	inactive: 0.093	inactive: 0.02	inactive: -0.022	inactive: -0.012
CELF2 isoform 3 (UniProt O95319)	inactive: 0.082	inactive: 0.013	inactive: 0.031	inactive: 0.096	inactive: -0.05	inactive: 0.001	inactive: 0.074	inactive: -0.095	inactive: 0.021	inactive: -0.023	inactive: 0.067	inactive: -0.025	inactive: 0.019	inactive: 0.018	inactive: -0.02	inactive: 0.108	inactive: -0.031	inactive: 0.037	inactive: -0.079	inactive: -0.061

Complete entries as entered above. Order of values: log2 fold change [1] | log2 fold change [2] | log2 fold change [3] | log2 fold change [4] | log2 fold change [5] | log2 fold change [6] | log2 fold change [7] | log2 fold change [8] | log2 fold change [9] | log2 fold change [10] | log2 fold change [11] | log2 fold change [12] | log2 fold change [13] | log2 fold change [14] | log2 fold change [15] | log2 fold change [16] | log2 fold change [17] | log2 fold change [18] | log2 fold change [19] | log2 fold change [20]
CETN2 (UniProt P41208) is listed with inactive: 0 | inactive: -0.012 | inactive: -0.007 | inactive: 0.022 | inactive: 0.007 | inactive: 0.095 | inactive: 0.064 | inactive: 0.029 | inactive: 0.042 | inactive: 0.032 | inactive: -0.011 | inactive: -0.049 | inactive: -0.02 | inactive: 0.02 | inactive: -0.025 | inactive: 0.123 | inactive: -0.047 | inactive: 0.057 | inactive: -0.011 | inactive: 0.005
CDAN1 (UniProt Q8IWY9) is listed with inactive: -0.047 | inactive: 0.004 | inactive: 0.014 | inactive: -0.093 | inactive: -0.034 | inactive: 0.031 | inactive: -0.03 | inactive: -0.012 | inactive: 0.002 | inactive: -0.005 | inactive: -0.034 | inactive: -0.051 | inactive: 0.049 | inactive: 0.039 | inactive: 0.017 | inactive: -0.018 | inactive: 0.093 | inactive: 0.02 | inactive: -0.022 | inactive: -0.012
